Measured data: PubChem BioAssay AID504791 (Drosophila RNAi Screening Center, 2011)

- Test: 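Genes of the fly required for silencing by miRNA, siRNA or endo-siRNA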 (primary screen)
- Cell system: Drosophila S2-derived reporter cells
- Knock-down reagent: long dsRNA against Drosophila genes, about 150-250 ng dsRNA per well (siRNA assay); about 80-120 ng (miRNA assay)
- Timing: about 5 days (siRNA assay); about 4 days (miRNA assay)
- Treatment: copper sulfate induction of reporters: 25 µM (siRNA assay); 200 mM stated (miRNA assay), 1-2 days before reading
- Read-out: 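Dual luciferase assay: Renilla to firefly signal ratio in each well, scaled to the mean ratio of its plate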
- Reading the numbers: siRNA reporter hit score: higher = 3 marks a strong hit with raised ratio; -3 a strong hit with lowered ratio
- Hit rule: 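a well was a first-pass pick when its plate-scaled ratio rose above 1.5 (siRNA assay) or 1.6 (miRNA assay), or dropped below 0.6; a gene counted only if two separate dsRNAs agreed on retest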
In all, the deposit lists about 23,000 reagents; this is an unselected part of those with a known target gene and a result. Over the whole deposit, 199 (0.86%) got an active call. 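Plate-scaled ratios behind the calls are not deposited; printed light signals are raw; many rows marked increased or decreased are still called inactive.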

{"gene": "Osi5", "dsRNA": "DRSC12276", "stable assay Renilla, run 1 (luminescence)": 7114, "stable assay firefly, run 1 (luminescence)": 4.54e5, "activity call": "inactive"}
{"gene": "ND-B16.6", "dsRNA": "DRSC18306", "stable assay Renilla, run 1 (luminescence)": 6071, "stable assay firefly, run 1 (luminescence)": 4.82e5, "activity call": "inactive"}
{"gene": "ND-B16.6", "dsRNA": "DRSC22600", "stable assay Renilla, run 1 (luminescence)": 3659, "stable assay firefly, run 1 (luminescence)": 3.86e5, "activity call": "inactive"}
{"gene": "Tfb4", "dsRNA": "DRSC00675", "siRNA reporter hit score": -3, "stable assay Renilla, run 1 (luminescence)": 6459, "stable assay firefly, run 1 (luminescence)": 3.07e5, "activity call": "inactive"}
{"gene": "RabGGTb", "dsRNA": "DRSC00804", "stable assay Renilla, run 1 (luminescence)": 12568, "stable assay firefly, run 1 (luminescence)": 5.04e5, "activity call": "inactive"}
{"gene": "Nos", "dsRNA": "DRSC03381", "stable assay Renilla, run 1 (luminescence)": 7582, "stable assay firefly, run 1 (luminescence)": 4.90e5, "activity call": "inactive"}
{"gene": "CG11696", "dsRNA": "DRSC19417", "stable assay Renilla, run 1 (luminescence)": 8418, "stable assay firefly, run 1 (luminescence)": 6.11e5, "activity call": "inactive"}
{"gene": "CG14292", "dsRNA": "DRSC14772", "stable assay Renilla, run 1 (luminescence)": 6543, "stable assay firefly, run 1 (luminescence)": 4.70e5, "activity call": "inactive"}
{"gene": "CG5561", "dsRNA": "DRSC00688", "stable assay Renilla, run 1 (luminescence)": 7066, "stable assay firefly, run 1 (luminescence)": 4.18e5, "activity call": "inactive"}
{"gene": "CG8157", "dsRNA": "DRSC07085", "stable assay Renilla, run 1 (luminescence)": 7329, "stable assay firefly, run 1 (luminescence)": 5.01e5, "activity call": "inactive"}
{"gene": "CG8157", "dsRNA": "DRSC21595", "stable assay Renilla, run 1 (luminescence)": 9951, "stable assay firefly, run 1 (luminescence)": 6.24e5, "activity call": "inactive"}
{"gene": "TMEM216", "dsRNA": "DRSC16378", "stable assay Renilla, run 1 (luminescence)": 5695, "stable assay firefly, run 1 (luminescence)": 3.14e5, "activity call": "inactive"}
{"gene": "CG7458", "dsRNA": "DRSC11829", "stable assay Renilla, run 1 (luminescence)": 4571, "stable assay firefly, run 1 (luminescence)": 3.71e5, "activity call": "inactive"}
{"gene": "CG7458", "dsRNA": "DRSC21340", "stable assay Renilla, run 1 (luminescence)": 8053, "stable assay firefly, run 1 (luminescence)": 4.61e5, "activity call": "inactive"}
{"gene": "CG32669", "dsRNA": "DRSC18864", "stable assay Renilla, run 1 (luminescence)": 5492, "stable assay firefly, run 1 (luminescence)": 3.23e5, "activity call": "inactive"}

Entries listed so far whose target name starts with C or c:
{"gene": "CG11696", "dsRNA": "DRSC19417", "stable assay Renilla, run 1 (luminescence)": 8418, "stable assay firefly, run 1 (luminescence)": 6.11e5, "activity call": "inactive"}
{"gene": "CG14292", "dsRNA": "DRSC14772", "stable assay Renilla, run 1 (luminescence)": 6543, "stable assay firefly, run 1 (luminescence)": 4.70e5, "activity call": "inactive"}
{"gene": "CG5561", "dsRNA": "DRSC00688", "stable assay Renilla, run 1 (luminescence)": 7066, "stable assay firefly, run 1 (luminescence)": 4.18e5, "activity call": "inactive"}
{"gene": "CG8157", "dsRNA": "DRSC07085", "stable assay Renilla, run 1 (luminescence)": 7329, "stable assay firefly, run 1 (luminescence)": 5.01e5, "activity call": "inactive"}
{"gene": "CG8157", "dsRNA": "DRSC21595", "stable assay Renilla, run 1 (luminescence)": 9951, "stable assay firefly, run 1 (luminescence)": 6.24e5, "activity call": "inactive"}
{"gene": "CG7458", "dsRNA": "DRSC11829", "stable assay Renilla, run 1 (luminescence)": 4571, "stable assay firefly, run 1 (luminescence)": 3.71e5, "activity call": "inactive"}
{"gene": "CG7458", "dsRNA": "DRSC21340", "stable assay Renilla, run 1 (luminescence)": 8053, "stable assay firefly, run 1 (luminescence)": 4.61e5, "activity call": "inactive"}
{"gene": "CG32669", "dsRNA": "DRSC18864", "stable assay Renilla, run 1 (luminescence)": 5492, "stable assay firefly, run 1 (luminescence)": 3.23e5, "activity call": "inactive"}

The listing continues:
{"gene": "CG7492", "dsRNA": "DRSC10855", "stable assay Renilla, run 1 (luminescence)": 7731, "stable assay firefly, run 1 (luminescence)": 4.00e5, "activity call": "inactive"}
{"gene": "comm3", "dsRNA": "DRSC09993", "stable assay Renilla, run 1 (luminescence)": 8826, "stable assay firefly, run 1 (luminescence)": 4.13e5, "activity call": "inactive"}
{"gene": "comm3", "dsRNA": "DRSC09994", "stable assay Renilla, run 1 (luminescence)": 8064, "stable assay firefly, run 1 (luminescence)": 3.68e5, "activity call": "inactive"}
{"gene": "comm3", "dsRNA": "DRSC09995", "miRNA reporter change": "reporter ratio raised past the hit cutoff", "stable assay Renilla, run 1 (luminescence)": 8806, "stable assay firefly, run 1 (luminescence)": 3.41e5, "activity call": "inactive"}
{"gene": "CG10702", "dsRNA": "DRSC02097", "stable assay Renilla, run 1 (luminescence)": 2.23e5, "stable assay firefly, run 1 (luminescence)": 1.02e6, "activity call": "inactive"}
{"gene": "Culd", "dsRNA": "DRSC10262", "stable assay Renilla, run 1 (luminescence)": 8019, "stable assay firefly, run 1 (luminescence)": 6.05e5, "activity call": "inactive"}
{"gene": "Dpit47", "dsRNA": "DRSC04985", "stable assay Renilla, run 1 (luminescence)": 6491, "stable assay firefly, run 1 (luminescence)": 3.49e5, "activity call": "inactive"}
{"gene": "Nepl10", "dsRNA": "DRSC07212", "stable assay Renilla, run 1 (luminescence)": 6543, "stable assay firefly, run 1 (luminescence)": 4.38e5, "activity call": "inactive"}
{"gene": "alrm", "dsRNA": "DRSC14436", "stable assay Renilla, run 1 (luminescence)": 7456, "stable assay firefly, run 1 (luminescence)": 3.91e5, "activity call": "inactive"}
{"gene": "mor", "dsRNA": "DRSC15378", "siRNA reporter hit score": 3, "stable assay Renilla, run 1 (luminescence)": 5966, "stable assay firefly, run 1 (luminescence)": 4.32e5, "activity call": "inactive"}
{"gene": "CG15705", "dsRNA": "DRSC06576", "stable assay Renilla, run 1 (luminescence)": 7696, "stable assay firefly, run 1 (luminescence)": 4.49e5, "activity call": "inactive"}
{"gene": "CG9257", "dsRNA": "DRSC03173", "stable assay Renilla, run 1 (luminescence)": 6230, "stable assay firefly, run 1 (luminescence)": 3.48e5, "activity call": "inactive"}
{"gene": "Fbp2", "dsRNA": "DRSC03327", "stable assay Renilla, run 1 (luminescence)": 8644, "stable assay firefly, run 1 (luminescence)": 6.59e5, "activity call": "inactive"}
{"gene": "CG17327", "dsRNA": "DRSC15225", "stable siRNA reporter change": "reporter ratio lowered past the hit cutoff", "stable assay Renilla, run 1 (luminescence)": 6448, "stable assay firefly, run 1 (luminescence)": 7.26e5, "activity call": "inactive"}
{"gene": "CG8630", "dsRNA": "DRSC16441", "miRNA reporter change": "reporter ratio raised past the hit cutoff", "stable assay Renilla, run 1 (luminescence)": 7841, "stable assay firefly, run 1 (luminescence)": 3.96e5, "activity call": "inactive"}
{"gene": "Gal", "dsRNA": "DRSC03134", "stable assay Renilla, run 1 (luminescence)": 8039, "stable assay firefly, run 1 (luminescence)": 4.77e5, "activity call": "inactive"}
{"gene": "CG32821 (retired record)", "dsRNA": "DRSC22544", "stable assay Renilla, run 1 (luminescence)": 4819, "stable assay firefly, run 1 (luminescence)": 4.79e5, "activity call": "inactive"}
{"gene": "Tango11", "dsRNA": "DRSC03890", "stable assay Renilla, run 1 (luminescence)": 5630, "stable assay firefly, run 1 (luminescence)": 5.67e5, "activity call": "inactive"}
{"gene": "Tango11", "dsRNA": "DRSC03892", "stable assay Renilla, run 1 (luminescence)": 6223, "stable assay firefly, run 1 (luminescence)": 5.49e5, "activity call": "inactive"}
{"gene": "CG7766", "dsRNA": "DRSC18424", "stable assay Renilla, run 1 (luminescence)": 7707, "stable assay firefly, run 1 (luminescence)": 4.50e5, "activity call": "inactive"}
